Test results taken from the supplement of paper PMC12595434, “Development of retinoid nuclear receptor pathway antagonists through targeting aldehyde dehydrogenase 1A3” (iScience, 2025).
The list shows a part of the results. The data scatter; read single values as rough.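 Many melting curves are irregular; where none melted, Tm was taken as 64 °C.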

The chains behind the UniProt entries cited, without tags or fusion partners. Where a name states a change or a piece, a line headed by the entry shows the natural chain unless it says otherwise.
UniProt Q9BVW5: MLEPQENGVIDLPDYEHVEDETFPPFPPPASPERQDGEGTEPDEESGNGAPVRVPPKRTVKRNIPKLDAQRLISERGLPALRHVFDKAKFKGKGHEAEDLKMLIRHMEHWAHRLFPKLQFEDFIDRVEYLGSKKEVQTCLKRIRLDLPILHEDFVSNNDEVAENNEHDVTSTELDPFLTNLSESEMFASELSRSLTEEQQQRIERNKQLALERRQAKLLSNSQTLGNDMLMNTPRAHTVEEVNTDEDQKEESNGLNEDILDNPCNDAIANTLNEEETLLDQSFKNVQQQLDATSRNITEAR
UniProt Q9BPX5, whole entry: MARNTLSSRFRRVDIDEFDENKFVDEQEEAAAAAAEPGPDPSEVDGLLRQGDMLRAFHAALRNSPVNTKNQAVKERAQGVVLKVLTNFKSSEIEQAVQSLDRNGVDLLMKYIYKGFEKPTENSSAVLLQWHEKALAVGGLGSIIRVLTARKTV
UniProt Q9BR61: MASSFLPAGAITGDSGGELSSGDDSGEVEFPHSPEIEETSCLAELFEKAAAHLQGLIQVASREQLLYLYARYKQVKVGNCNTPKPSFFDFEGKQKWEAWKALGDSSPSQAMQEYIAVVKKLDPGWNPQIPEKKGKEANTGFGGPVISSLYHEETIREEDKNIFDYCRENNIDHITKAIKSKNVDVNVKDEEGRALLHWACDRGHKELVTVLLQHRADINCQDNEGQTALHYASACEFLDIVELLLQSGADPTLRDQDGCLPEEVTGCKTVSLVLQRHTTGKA
UniProt Q9BQA9: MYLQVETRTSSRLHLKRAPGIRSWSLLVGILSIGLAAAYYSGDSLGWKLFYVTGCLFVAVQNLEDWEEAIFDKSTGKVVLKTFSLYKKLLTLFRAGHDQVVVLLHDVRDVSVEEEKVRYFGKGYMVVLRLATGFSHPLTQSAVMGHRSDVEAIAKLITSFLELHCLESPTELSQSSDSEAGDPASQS
UniProt Q9BY44: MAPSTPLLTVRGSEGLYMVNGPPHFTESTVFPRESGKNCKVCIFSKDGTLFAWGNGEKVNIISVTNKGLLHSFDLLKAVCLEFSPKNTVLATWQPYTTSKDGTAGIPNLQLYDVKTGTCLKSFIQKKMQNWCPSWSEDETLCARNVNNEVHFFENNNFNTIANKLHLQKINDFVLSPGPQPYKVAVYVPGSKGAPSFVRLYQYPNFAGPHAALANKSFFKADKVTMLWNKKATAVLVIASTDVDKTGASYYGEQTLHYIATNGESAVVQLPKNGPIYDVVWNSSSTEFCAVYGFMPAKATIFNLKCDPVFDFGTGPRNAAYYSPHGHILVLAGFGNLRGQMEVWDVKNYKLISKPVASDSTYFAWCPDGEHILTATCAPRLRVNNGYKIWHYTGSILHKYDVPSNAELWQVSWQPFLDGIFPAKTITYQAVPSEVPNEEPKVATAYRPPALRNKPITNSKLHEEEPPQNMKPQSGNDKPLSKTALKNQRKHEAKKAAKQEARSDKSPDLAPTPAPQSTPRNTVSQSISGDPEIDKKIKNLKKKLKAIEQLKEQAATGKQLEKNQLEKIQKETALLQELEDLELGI
UniProt Q9BW19: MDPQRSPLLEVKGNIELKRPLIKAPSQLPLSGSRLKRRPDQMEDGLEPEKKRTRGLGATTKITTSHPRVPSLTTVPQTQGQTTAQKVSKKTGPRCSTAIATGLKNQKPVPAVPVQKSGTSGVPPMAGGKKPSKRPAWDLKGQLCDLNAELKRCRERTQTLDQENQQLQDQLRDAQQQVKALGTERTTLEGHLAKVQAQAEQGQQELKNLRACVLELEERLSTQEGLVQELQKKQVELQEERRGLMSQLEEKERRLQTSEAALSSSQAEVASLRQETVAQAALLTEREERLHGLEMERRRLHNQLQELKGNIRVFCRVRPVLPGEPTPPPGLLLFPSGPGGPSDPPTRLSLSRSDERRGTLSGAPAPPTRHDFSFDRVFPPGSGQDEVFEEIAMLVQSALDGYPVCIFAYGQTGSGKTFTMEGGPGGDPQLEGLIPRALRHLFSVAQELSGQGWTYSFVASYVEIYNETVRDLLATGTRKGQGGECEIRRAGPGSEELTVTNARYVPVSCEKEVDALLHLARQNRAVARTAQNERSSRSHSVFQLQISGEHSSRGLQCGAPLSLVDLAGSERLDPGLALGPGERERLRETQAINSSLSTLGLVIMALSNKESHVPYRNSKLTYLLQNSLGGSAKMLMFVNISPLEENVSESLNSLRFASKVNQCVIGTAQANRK
UniProt Q9BQ39: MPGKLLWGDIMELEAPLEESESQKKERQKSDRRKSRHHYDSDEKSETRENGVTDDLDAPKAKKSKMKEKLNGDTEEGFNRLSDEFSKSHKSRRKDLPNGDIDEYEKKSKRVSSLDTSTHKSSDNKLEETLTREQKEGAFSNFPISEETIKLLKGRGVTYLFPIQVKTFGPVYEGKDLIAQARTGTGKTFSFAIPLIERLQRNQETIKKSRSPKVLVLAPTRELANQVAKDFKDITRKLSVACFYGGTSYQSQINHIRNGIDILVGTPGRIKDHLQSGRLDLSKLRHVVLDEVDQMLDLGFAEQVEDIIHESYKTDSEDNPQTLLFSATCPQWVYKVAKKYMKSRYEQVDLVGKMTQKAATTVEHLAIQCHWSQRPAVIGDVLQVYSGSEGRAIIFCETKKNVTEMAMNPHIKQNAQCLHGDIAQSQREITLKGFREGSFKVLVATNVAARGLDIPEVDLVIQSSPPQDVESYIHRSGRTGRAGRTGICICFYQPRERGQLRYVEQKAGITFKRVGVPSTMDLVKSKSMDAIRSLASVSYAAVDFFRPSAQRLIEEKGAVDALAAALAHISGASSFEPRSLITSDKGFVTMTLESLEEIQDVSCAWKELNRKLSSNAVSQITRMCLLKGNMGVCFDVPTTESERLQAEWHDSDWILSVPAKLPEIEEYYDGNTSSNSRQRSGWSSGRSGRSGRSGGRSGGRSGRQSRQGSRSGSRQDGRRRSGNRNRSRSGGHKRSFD
UniProt Q9BV73: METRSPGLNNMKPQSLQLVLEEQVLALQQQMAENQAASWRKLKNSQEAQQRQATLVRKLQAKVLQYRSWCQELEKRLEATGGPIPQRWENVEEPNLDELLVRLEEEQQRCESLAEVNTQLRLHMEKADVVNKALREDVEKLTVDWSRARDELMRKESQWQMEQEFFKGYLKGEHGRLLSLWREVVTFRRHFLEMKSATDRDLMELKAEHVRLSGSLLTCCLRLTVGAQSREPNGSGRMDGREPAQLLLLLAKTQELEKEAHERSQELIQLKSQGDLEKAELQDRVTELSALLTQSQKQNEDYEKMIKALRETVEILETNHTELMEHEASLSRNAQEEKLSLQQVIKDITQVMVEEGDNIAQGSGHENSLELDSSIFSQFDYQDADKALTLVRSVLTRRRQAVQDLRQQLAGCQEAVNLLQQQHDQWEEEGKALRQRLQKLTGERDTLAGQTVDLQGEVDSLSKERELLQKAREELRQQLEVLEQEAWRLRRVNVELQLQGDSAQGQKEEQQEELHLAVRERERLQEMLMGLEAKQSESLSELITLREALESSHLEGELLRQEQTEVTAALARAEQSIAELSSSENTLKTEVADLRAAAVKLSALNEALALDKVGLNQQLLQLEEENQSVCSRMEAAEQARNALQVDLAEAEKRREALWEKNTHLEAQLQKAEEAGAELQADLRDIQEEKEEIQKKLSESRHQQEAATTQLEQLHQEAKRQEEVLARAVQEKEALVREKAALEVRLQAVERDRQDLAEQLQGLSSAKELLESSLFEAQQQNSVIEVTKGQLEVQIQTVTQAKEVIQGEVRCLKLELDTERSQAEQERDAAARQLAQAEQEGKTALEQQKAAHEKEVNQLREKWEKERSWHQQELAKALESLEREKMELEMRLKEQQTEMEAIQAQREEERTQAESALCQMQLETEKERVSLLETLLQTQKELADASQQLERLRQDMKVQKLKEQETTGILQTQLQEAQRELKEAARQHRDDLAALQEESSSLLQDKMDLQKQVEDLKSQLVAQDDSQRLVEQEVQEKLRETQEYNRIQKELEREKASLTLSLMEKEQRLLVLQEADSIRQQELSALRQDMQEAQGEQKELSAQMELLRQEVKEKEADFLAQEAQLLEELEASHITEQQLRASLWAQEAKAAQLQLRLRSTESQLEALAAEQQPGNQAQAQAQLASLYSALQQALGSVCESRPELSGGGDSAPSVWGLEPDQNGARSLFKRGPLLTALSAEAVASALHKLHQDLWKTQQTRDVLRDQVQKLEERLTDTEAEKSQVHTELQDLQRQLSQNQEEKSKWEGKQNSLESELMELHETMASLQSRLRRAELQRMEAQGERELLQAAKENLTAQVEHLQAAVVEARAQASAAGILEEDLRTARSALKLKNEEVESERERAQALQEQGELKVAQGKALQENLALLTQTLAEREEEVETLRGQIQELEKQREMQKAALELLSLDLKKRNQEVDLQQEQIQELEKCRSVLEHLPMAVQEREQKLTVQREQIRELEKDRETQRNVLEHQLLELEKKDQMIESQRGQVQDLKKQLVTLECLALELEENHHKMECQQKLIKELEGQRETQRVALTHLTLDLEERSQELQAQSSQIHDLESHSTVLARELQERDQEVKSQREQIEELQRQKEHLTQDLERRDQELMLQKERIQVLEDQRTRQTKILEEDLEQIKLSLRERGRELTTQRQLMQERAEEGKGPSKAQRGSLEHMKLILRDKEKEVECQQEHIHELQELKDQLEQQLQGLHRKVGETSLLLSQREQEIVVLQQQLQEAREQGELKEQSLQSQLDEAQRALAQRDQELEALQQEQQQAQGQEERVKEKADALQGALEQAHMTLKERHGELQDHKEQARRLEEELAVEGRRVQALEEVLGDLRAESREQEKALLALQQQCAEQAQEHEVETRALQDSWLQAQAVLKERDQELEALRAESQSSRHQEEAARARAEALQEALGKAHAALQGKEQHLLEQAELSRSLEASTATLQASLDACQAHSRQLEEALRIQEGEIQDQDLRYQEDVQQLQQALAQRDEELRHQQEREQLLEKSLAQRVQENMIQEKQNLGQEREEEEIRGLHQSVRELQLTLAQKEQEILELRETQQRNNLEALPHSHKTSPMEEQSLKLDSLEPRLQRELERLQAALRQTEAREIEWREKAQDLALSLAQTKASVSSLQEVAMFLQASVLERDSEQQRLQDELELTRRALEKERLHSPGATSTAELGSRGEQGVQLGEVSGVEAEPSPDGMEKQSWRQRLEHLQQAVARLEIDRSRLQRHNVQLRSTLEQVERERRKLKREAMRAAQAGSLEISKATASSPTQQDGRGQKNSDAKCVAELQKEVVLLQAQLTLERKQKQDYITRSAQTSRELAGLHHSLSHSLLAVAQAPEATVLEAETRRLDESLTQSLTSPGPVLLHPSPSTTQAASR
UniProt Q9BRR6: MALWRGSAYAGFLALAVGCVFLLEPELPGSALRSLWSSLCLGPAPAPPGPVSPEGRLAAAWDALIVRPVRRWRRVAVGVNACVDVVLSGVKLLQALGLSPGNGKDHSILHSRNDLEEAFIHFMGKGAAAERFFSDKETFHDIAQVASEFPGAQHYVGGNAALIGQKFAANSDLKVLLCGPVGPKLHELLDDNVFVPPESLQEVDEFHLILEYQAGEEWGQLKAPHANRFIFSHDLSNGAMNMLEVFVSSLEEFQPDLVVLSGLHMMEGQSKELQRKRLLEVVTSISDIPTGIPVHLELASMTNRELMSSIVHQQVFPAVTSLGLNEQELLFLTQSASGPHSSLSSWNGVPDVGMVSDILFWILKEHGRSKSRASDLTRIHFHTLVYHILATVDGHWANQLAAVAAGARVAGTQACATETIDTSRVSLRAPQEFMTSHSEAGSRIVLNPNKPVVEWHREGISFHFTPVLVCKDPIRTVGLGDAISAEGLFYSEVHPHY
UniProt Q9BWU0: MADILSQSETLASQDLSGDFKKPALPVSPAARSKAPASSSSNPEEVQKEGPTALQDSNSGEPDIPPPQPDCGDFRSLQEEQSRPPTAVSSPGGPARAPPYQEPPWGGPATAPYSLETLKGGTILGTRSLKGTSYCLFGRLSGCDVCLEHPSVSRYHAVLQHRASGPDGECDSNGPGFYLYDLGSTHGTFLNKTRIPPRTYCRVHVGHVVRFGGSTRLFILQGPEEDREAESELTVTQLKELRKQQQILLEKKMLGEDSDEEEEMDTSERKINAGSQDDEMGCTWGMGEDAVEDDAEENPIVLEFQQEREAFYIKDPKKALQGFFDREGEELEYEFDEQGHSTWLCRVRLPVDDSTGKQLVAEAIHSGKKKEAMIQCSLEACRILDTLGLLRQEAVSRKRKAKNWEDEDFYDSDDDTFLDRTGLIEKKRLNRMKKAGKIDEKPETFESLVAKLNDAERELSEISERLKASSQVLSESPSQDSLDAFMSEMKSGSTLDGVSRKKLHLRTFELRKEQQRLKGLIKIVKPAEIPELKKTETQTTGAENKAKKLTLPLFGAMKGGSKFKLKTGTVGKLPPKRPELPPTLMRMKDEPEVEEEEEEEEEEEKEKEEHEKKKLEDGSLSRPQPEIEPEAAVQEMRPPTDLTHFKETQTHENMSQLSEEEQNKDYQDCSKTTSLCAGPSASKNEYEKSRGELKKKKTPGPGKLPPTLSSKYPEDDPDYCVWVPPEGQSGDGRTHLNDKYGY

Compound: CCc1cnccc1C(=O)Nc1cc2c(cc1F)NC(=O)CC2
Experiment: melting temperature shift (DMSO Tm minus MBE1-treated Tm) in cellular thermal proteome profiling; higher = less thermal stabilization by MBE1 (negative = stabilized by MBE1)
Settings: A375

Row | Target | melting temperature shift (MBE1 concentration: 100 nM) [°C] | melting temperature shift (MBE1 concentration: 1 uM) [°C]
1 | ADI1 (UniProt Q9BV57) | 0.916 | 1.24
2 | MCMBP (UniProt Q9BTE3) | -0.753 | -0.382
3 | TIPIN (UniProt Q9BVW5) | 0.568 | 0.656
4 | TMEM59 (UniProt Q9BXS4) | -2.02 | 0.718
5 | QTRT1 (UniProt Q9BXR0) | -0.977 | -0.299
6 | TMEM43 (UniProt Q9BTV4) | -0.724 | 0.557
7 | ARPC5L (UniProt Q9BPX5) | -1.8 | 0.201
8 | WRAP53 (UniProt Q9BUR4) | -1.11 | -0.00671
9 | UniProt Q9BTT4 | -2.37 | 1.43
10 | IFT27 (UniProt Q9BW83) | -0.845 | -0.986
11 | WDR77 (UniProt Q9BQA1) | -0.0134 | 0.322
12 | ACBD6 (UniProt Q9BR61) | -0.416 | -0.759
13 | GINS3 (UniProt Q9BRX5) | -0.147 | 0.00611
14 | UniProt Q99674 | 0.898 | -0.83
15 | OSBPL11 (UniProt Q9BXB4) | -0.287 | -0.311
16 | MED18 (UniProt Q9BUE0) | -0.47 | 0.047
17 | UniProt Q9BSQ5 | -0.0672 | 0.189
18 | GRWD1 (UniProt Q9BQ67) | -1.61 | -0.115
19 | AP1M1 (UniProt Q9BXS5) | 0.965 | -0.055
20 | ACAT2 (UniProt Q9BWD1) | -0.478 | 0.667
21 | SH3GL1 (UniProt Q99961) | -0.39 | -0.715

Given in CSV form: entries from further up
Row,Target,melting temperature shift (MBE1 concentration: 100 nM) [°C],melting temperature shift (MBE1 concentration: 1 uM) [°C]
3,TIPIN (UniProt Q9BVW5),0.568,0.656
4,TMEM59 (UniProt Q9BXS4),-2.02,0.718
7,ARPC5L (UniProt Q9BPX5),-1.8,0.201
9,UniProt Q9BTT4,-2.37,1.43
12,ACBD6 (UniProt Q9BR61),-0.416,-0.759

More results:

Row | Target | melting temperature shift (MBE1 concentration: 100 nM) [°C] | melting temperature shift (MBE1 concentration: 1 uM) [°C]
22 | BCL7B (UniProt Q9BQE9) | -0.224 | -2.92
23 | UniProt Q9BY12 | 2.36 | 1.71
24 | EBNA1BP2 (UniProt Q99848) | -2.3 | -1.53
25 | C17ORF62 (UniProt Q9BQA9) | -0.893 | -0.727
26 | NAA15 (UniProt Q9BXJ9) | -0.154 | 0.101
27 | PI4K2A (UniProt Q9BTU6) | -0.49 | -0.288
28 | EIF2A (UniProt Q9BY44) | -0.514 | -0.122
29 | KIFC1 (UniProt Q9BW19) | -0.666 | -0.602
30 | UniProt Q9BSC4 | -0.0641 | -0.0128
31 | ITPA (UniProt Q9BY32) | -2 | -0.874
32 | UniProt Q99698 | -2.8 | -0.161
33 | TTC1 (UniProt Q99614) | -3.65 | -3.35
34 | DDX50 (UniProt Q9BQ39) | -0.0282 | 0.16
35 | UniProt Q9BT88 | -1.02 | -0.0916
36 | UniProt Q9BR77 | -3.82 | 0.269
37 | AGPAT1 (UniProt Q99943) | 0.989 | 0.25
38 | C2ORF49 (UniProt Q9BVC5) | 0.22 | -0.495
39 | UniProt Q9BRV8 | 0.397 | -2.08
40 | TUBB6 (UniProt Q9BUF5) | -1.26 | 0.44
41 | CEP250 (UniProt Q9BV73) | 2.93 | 2.07
42 | ATXN2 (UniProt Q99700) | -0.128 | 0.714

Row | Target | melting temperature shift (MBE1 concentration: 100 nM) [°C] | melting temperature shift (MBE1 concentration: 1 uM) [°C]
43 | VRK1 (UniProt Q99986) | -0.754 | 0.00641
44 | MTR (UniProt Q99707) | 0.0565 | -0.174
45 | MRPL45 (UniProt Q9BRJ2) | 1.37 | -1.39
46 | UniProt Q9BPX7 | -1.25 | -1.02
47 | DNAJC2 (UniProt Q99543) | -0.677 | -0.898
48 | EDEM2 (UniProt Q9BV94) | -0.503 | -2.68
49 | DDA1 (UniProt Q9BW61) | 0.696 | 0.452
50 | HNRNPUL1 (UniProt Q9BUJ2) | -0.973 | -0.72
51 | UniProt Q9BRR8 | 2.32 | 0.983
52 | UTP14A (UniProt Q9BVJ6) | -0.0183 | 0.946
53 | DERL1 (UniProt Q9BUN8) | -3.67 | -3.67
54 | UniProt Q9BX63 | 2.34 | 1.49
55 | MTG1 (UniProt Q9BT17) | -3.97 | -2.09
56 | UBAC1 (UniProt Q9BSL1) | 1.76 | -0.318
57 | FAM213A (UniProt Q9BRX8) | -0.568 | 0.183
58 | NIPSNAP1 (UniProt Q9BPW8) | -0.449 | 0.114
59 | MECR (UniProt Q9BV79) | 0.0268 | -0.0604
60 | NOC4L (UniProt Q9BVI4) | -0.179 | -0.0513
61 | ADPGK (UniProt Q9BRR6) | -1.39 | 0.513
62 | UniProt Q9BRD0 | -2.09 | 0.0855
63 | DPCD (UniProt Q9BVM2) | -0.367 | -0.442

Row | Target | melting temperature shift (MBE1 concentration: 100 nM) [°C] | melting temperature shift (MBE1 concentration: 1 uM) [°C]
64 | TXN2 (UniProt Q99757) | -0.268 | 1.26
65 | UniProt Q9BQ87 | -4.73 | -5.19
66 | DOHH (UniProt Q9BU89) | -0.359 | -0.128
67 | UniProt Q99719 | -0.563 | -0.181
68 | SFXN3 (UniProt Q9BWM7) | -0.335 | -0.496
69 | ISCA1 (UniProt Q9BUE6) | 0.315 | 0.469
70 | TUBGCP2 (UniProt Q9BSJ2) | 0.684 | 0.421
71 | NTMT1 (UniProt Q9BV86) | -0.122 | -0.0855
72 | AARSD1 (UniProt Q9BTE6) | 0.281 | -0.788
73 | SLC4A1AP (UniProt Q9BWU0) | 0.0794 | 0.372
74 | DNAJC7 (UniProt Q99615) | 0.226 | 0.0366
75 | C17ORF80 (UniProt Q9BSJ5) | -0.174 | -0.256
76 | KIF2C (UniProt Q99661) | -1.21 | -0.259
77 | UniProt Q9BS16 | -4.79 | -5.11
78 | HINT2 (UniProt Q9BX68) | -1.58 | 1.74
79 | ANP32E (UniProt Q9BTT0) | -0.359 | -0.333
80 | UniProt Q9BUG6 | -2.49 | 0.722
81 | KIAA0586 (UniProt Q9BVV6) | -0.181 | -0.666
